{"sequences": {"note": "Amino acid sequences for entries named in this document (tags omitted).", "UniProt P16473, whole entry, looked up": "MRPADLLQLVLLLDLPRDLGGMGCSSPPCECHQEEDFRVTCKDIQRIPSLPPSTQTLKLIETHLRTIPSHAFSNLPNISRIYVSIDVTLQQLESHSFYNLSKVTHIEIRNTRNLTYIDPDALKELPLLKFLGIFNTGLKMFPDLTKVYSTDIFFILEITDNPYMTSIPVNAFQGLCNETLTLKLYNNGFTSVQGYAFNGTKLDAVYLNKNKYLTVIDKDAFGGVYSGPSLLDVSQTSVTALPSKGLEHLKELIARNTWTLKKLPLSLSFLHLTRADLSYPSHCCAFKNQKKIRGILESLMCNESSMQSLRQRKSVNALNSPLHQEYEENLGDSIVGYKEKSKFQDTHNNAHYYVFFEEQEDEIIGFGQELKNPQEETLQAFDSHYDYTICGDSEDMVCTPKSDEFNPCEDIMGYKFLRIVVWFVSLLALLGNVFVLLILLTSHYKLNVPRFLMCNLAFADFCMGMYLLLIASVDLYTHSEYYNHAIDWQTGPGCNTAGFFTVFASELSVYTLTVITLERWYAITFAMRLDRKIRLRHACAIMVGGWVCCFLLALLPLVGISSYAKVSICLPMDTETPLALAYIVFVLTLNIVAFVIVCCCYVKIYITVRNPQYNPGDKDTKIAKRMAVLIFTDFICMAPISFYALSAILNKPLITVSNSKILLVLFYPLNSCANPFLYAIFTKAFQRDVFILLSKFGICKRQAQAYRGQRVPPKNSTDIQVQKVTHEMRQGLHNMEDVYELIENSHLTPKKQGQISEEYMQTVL"}, "source": "PubChem BioAssay AID939", "about": "(National Center for Advancing Translational Sciences (NCATS), 2007)", "note": "Inconclusive results, whose numbers are uncertain, are shown with a selection of clear calls. A potency beside an inconclusive call is a rough fit, not a confirmed value. Calls of active or inactive are those of the source. The call rests on the fitted dose curve; in most records, active means well fitted activation curve with a large enough effect in the main read-out, with a control signal flat; inconclusive means small, poorly fitted or top-dose-only effect, or effect the other way, or a change in a side signal; inactive means no such curve, though single readings can be large or run the other way. Potency means the concentration at half of the fitted maximal effect.", "data": [{"biological_target": "Thyrotropin receptor (Homo sapiens) (UniProt P16473)", "experiment": "Confirmation Concentration-Response Assay for Agonists of the Thyroid Stimulating Hormone Receptor; on activation: % of control where 0% means no effect", "conditions": "HEK293 TSHR-CNG cells, membrane potential dye, cAMP; activation: at 25.6 µM (top of the series)", "outline": "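Read-out: membrane potential dye fluorescence (emission 590 nm) after 30 min compound exposure, reflecting cAMP-gated CNG opening in TSHR/CNG HEK 293 cells. Dye with 100 uM RO 20-1724 pre-equilibrated 60 min at room temperature. CNG-only parental cells control.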", "values": [{"smiles": "CC1(C)CC(=O)C2=C(C1)OC(N)=C(C#N)C2CCc1ccccc1", "note": "(centres undefined)", "Potency": "inconclusive: 12.6 µM [activator, partial curve]"}, {"smiles": "COC(=O)C1=C(C)NC(=O)NC1c1cn(-c2ccccc2)nc1-c1cccs1", "note": "(centres undefined)", "Potency": "inconclusive: 12.6 µM [activator, partial curve, poor fit]"}, {"smiles": "CCN(c1ccccc1)S(=O)(=O)c1ccc(Oc2ccc(-n3ccnc3)cc2)nc1", "Potency": "inactive"}, {"smiles": "CCOC(=O)c1c(N)n(CCOC(=O)c2cccs2)c2nc3ccccc3nc12", "activation": "inconclusive: 33% [activator]"}, {"smiles": "Cn1cccc1Cc1nnc(SCC(N)=O)n1CCc1ccccc1", "Potency": "inactive"}, {"smiles": "Cc1cc(C)nc(N(C#N)CC(=O)N2CCC(C(N)=O)CC2)n1", "Potency": "inactive"}, {"smiles": "COc1ccc(-c2cc(C(F)(F)F)nc(SCCC(=O)N3CCOCC3)n2)cc1", "Potency": "active: 15.8 µM"}, {"smiles": "O=C(c1cc(-c2cccs2)on1)N1CCCc2ccccc21", "Potency": "inconclusive: 12.6 µM [rising, partial curve]"}, {"smiles": "CC1(C)CC2CC(C)(CN2S(=O)(=O)c2ccc(N)cc2)C1", "note": "(centres undefined)", "Potency": "inconclusive: 10 µM [activator, partial curve, poor fit]"}, {"smiles": "Cc1nn(C)c(C)c1S(=O)(=O)N(CC(=O)Nc1nccs1)c1ccc(C(C)C)cc1", "Potency": "inconclusive: 10 µM [activator, full curve]"}, {"smiles": "CCCC(=O)C1=C(SCC)CC(C)(C)C(C(=O)OC)C1=O", "note": "(centres undefined)", "Potency": "inactive"}, {"smiles": "O=C1CC(c2ccco2)CC2=C1C(c1ccccc1)n1nc(C(F)(F)F)nc1N2", "note": "(centres undefined)", "Potency": "active: 1 µM"}, {"smiles": "O=S1(=O)N=C(Oc2ccccc2)c2ccccc21", "Potency": "inactive"}, {"smiles": "Cc1ccc(N(CC(=O)NCc2ccco2)S(=O)(=O)c2ccccc2)cc1", "Potency": "active: 12.6 µM"}, {"smiles": "Cc1nn(C)c(C)c1S(=O)(=O)N(CC(=O)Nc1ccccn1)c1ccc(C(C)C)cc1", "Potency": "inconclusive: 7.94 µM [activator, partial curve, poor fit]"}, {"smiles": "CCc1ccccc1NC1=NCC(=O)N1Cc1ccc(OC)cc1", "Potency": "active: 12.6 µM"}, {"smiles": "CCc1ccc(-c2nc(CN3CCC(C(=O)N4CCN(c5ccccc5)CC4)CC3)c(C)o2)cc1", "Potency": "inactive"}, {"smiles": "O=C(CSc1nnc(-c2ccccc2)n1Cc1ccco1)Nc1ccc2c(c1)OCCO2", "Potency": "inconclusive: 15.8 µM [activator, partial curve, poor fit]"}, {"smiles": "Cc1noc(/C=C/c2ccco2)c1S(=O)(=O)N1CCC(C(=O)NCc2ccco2)CC1", "Potency": "inconclusive: 12.6 µM [activator, partial curve, poor fit]"}]}]}
